{"source": "patent US11359044B2", "about": "“Preparation and application of novel multifunctional nanocomposite material with new photosensitizer” (priority 2018, dated 2022)", "key": {"[1]": {"assay": "Singlet oxygen production capacity with DPBF trapping agent", "assay_type": "physicochemical", "settings": "DMSO, irradiation at 463 nm, ZnPc as reference"}, "[2]": {"settings": "background statement; cited from earlier work"}}, "note": "Where two headings read alike, the source gives them in different places. At least one structure is not confirmed: it was looked up by name or label, or the drawing left a doubt."}
{"smiles": "COc1c(CC(C)O)c2c3c(CC(C)O)c(OC)c(=O)c4c(O)cc5c(c6c(cc(O)c(c1=O)c62)OCO5)c43", "note": "(centres unmarked) [cercosporin]", "values": [{"measurement": "singlet oxygen quantum yield", "setting": "[1]", "result": 0.83}, {"measurement": "singlet oxygen quantum yield", "setting": "[2]", "result": 0.81}]}
